Measurements as given in article PMC10333084.
These are yes or no findings as the source states them, for the method shown. In cells and extracts the contact can be indirect. These calls come from enrichment with a bait or labelling near it, and not all partners need be listed.

Chains of the proteins cited; added tags and fusions are not shown.
UniProt Q8TAQ2: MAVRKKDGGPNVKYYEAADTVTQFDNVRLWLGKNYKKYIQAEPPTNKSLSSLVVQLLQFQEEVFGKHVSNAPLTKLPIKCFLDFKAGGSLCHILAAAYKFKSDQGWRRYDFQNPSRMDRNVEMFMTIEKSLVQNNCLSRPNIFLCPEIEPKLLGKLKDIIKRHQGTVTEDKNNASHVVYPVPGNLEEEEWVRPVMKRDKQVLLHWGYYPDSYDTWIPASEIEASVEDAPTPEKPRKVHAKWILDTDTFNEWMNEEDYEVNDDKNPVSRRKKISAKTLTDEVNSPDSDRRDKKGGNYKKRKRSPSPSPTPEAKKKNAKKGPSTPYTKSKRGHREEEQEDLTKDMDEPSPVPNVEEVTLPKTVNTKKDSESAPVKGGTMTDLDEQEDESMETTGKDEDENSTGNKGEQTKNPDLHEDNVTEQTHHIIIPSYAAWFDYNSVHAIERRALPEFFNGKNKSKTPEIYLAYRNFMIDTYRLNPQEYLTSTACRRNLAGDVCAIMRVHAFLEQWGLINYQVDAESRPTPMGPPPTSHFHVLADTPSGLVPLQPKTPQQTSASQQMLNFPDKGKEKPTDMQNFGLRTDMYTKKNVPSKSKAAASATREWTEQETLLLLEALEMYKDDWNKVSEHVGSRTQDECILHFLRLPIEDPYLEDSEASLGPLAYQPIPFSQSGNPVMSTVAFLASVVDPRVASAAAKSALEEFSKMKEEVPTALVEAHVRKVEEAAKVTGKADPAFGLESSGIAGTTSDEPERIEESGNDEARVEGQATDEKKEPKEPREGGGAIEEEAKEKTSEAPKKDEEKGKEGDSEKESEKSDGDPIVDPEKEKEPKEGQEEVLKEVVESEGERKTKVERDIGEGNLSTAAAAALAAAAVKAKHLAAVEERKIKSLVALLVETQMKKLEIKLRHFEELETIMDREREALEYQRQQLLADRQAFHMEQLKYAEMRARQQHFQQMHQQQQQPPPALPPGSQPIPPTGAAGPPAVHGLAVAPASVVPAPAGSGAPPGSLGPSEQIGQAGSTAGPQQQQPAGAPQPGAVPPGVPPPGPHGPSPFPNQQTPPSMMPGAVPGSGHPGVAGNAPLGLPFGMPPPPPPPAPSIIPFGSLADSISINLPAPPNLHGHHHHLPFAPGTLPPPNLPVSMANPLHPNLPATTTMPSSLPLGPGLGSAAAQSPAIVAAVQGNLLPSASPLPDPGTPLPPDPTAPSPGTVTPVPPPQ

Biological target: T1, F-box only protein 28 (FBXO28) (UniProt Q9NVF7)
T1 sequence: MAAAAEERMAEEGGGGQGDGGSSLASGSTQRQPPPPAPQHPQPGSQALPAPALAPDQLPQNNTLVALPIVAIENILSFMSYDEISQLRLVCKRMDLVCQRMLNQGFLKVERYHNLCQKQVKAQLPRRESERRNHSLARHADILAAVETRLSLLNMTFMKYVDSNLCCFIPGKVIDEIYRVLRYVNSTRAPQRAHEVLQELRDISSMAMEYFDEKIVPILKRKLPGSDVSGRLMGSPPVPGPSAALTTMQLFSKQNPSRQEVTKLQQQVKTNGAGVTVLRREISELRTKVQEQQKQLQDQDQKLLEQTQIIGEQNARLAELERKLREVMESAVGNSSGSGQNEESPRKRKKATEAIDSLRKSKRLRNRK
Assay: affinity purification with mass spectrometry; anti-FBXO28 immunoprecipitates from lysates of BxPC-3 cells with stable FBXO28 overexpression and control cells; SDS-PAGE, band staining, LC-MS/MS

- binding: binds
Substance: SMARCC2 (from UniProt Q8TAQ2 1-1214)
